Results are given in words; binding and its absence hold for the method and conditions named. In cells and extracts the contact can be indirect. Here binding means that the protein was enriched with, or labelled near, the bait; the list need not be complete.

Protein sequences, listed by entry. Tags and fused reporters are not part of them.
UniProt P39748: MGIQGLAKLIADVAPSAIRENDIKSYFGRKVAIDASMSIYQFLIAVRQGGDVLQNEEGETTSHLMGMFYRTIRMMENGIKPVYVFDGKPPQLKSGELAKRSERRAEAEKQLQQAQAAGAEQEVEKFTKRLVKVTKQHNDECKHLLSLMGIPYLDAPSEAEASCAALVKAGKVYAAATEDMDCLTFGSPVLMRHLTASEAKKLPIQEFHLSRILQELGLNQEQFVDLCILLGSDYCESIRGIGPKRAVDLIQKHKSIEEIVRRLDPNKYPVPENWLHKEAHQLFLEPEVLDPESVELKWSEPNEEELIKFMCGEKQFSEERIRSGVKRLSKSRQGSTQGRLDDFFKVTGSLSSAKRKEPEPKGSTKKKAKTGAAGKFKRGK
UniProt P28340: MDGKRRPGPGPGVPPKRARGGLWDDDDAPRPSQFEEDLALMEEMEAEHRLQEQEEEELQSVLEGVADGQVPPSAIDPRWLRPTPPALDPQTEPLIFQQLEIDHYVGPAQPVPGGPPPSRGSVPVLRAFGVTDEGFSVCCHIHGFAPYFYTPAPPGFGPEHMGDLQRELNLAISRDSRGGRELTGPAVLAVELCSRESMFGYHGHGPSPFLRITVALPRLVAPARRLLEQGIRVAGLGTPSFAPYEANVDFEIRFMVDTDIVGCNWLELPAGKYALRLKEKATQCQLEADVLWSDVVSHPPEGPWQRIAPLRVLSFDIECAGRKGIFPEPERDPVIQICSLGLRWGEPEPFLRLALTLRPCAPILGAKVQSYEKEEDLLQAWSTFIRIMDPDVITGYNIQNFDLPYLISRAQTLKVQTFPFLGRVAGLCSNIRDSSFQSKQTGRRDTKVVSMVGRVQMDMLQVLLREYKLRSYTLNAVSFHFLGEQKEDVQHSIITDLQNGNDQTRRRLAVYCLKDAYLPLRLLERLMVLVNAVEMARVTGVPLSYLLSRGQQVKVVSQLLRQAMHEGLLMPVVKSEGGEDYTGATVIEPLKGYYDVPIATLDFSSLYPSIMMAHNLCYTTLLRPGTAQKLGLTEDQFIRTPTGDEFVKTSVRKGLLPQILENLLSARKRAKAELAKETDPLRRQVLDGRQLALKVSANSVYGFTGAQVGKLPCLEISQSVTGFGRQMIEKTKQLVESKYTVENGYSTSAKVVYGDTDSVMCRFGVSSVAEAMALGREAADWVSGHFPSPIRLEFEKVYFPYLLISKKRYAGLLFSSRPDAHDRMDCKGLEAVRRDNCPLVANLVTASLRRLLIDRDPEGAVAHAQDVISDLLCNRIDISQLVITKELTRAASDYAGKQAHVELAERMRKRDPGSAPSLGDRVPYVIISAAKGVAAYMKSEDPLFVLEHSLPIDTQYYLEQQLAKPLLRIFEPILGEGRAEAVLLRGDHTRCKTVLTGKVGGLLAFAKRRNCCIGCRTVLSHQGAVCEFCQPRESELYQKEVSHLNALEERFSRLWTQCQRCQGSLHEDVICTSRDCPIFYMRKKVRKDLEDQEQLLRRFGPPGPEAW
UniProt P27694: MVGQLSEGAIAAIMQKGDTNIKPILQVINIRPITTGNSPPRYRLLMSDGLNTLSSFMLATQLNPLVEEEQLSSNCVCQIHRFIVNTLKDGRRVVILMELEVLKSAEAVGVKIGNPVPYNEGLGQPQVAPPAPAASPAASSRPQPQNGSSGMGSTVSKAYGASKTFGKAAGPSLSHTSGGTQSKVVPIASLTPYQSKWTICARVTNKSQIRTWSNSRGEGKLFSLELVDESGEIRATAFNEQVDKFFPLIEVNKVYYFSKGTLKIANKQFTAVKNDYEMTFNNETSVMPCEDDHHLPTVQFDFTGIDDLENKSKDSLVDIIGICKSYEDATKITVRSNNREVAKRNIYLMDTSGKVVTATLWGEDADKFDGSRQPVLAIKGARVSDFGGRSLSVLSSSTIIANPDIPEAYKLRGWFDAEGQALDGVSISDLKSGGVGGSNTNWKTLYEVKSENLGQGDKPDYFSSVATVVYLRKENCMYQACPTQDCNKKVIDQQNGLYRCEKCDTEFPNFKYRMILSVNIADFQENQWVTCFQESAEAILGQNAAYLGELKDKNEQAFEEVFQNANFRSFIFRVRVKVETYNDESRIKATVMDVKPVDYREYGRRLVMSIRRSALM
UniProt P13010: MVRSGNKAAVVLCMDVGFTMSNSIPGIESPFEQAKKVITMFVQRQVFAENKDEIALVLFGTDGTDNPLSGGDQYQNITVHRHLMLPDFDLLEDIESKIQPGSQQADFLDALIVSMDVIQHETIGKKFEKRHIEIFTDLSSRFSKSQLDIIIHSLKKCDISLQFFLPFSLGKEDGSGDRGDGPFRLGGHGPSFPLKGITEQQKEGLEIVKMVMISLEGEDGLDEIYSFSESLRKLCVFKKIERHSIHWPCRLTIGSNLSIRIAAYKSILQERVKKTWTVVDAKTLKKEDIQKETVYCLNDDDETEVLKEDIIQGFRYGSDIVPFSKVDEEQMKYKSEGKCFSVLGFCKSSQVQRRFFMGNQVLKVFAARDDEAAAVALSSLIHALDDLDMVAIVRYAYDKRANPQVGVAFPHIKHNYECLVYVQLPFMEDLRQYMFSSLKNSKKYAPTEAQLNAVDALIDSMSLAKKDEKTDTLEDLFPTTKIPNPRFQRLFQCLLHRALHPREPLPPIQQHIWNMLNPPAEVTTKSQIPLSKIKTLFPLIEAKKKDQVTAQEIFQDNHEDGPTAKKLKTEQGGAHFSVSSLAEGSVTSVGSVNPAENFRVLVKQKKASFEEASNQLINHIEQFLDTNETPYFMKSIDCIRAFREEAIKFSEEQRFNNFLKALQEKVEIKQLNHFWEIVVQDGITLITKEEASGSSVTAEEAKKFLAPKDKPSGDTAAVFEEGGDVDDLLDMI
UniProt P12956: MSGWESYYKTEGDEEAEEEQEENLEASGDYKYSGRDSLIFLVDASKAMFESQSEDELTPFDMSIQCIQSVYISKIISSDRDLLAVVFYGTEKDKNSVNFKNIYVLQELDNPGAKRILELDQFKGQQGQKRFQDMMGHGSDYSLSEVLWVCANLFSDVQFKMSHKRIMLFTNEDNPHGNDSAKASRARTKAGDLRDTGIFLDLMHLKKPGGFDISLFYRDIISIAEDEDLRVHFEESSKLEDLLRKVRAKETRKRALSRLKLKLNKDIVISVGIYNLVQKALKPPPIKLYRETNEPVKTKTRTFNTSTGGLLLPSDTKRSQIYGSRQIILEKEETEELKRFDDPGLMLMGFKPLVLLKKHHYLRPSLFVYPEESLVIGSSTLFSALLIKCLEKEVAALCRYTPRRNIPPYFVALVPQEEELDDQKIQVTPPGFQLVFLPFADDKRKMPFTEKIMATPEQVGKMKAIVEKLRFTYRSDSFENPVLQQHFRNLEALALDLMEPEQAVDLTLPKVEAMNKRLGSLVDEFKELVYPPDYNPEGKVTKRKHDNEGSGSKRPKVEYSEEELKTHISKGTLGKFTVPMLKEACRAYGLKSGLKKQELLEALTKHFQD
UniProt P09874: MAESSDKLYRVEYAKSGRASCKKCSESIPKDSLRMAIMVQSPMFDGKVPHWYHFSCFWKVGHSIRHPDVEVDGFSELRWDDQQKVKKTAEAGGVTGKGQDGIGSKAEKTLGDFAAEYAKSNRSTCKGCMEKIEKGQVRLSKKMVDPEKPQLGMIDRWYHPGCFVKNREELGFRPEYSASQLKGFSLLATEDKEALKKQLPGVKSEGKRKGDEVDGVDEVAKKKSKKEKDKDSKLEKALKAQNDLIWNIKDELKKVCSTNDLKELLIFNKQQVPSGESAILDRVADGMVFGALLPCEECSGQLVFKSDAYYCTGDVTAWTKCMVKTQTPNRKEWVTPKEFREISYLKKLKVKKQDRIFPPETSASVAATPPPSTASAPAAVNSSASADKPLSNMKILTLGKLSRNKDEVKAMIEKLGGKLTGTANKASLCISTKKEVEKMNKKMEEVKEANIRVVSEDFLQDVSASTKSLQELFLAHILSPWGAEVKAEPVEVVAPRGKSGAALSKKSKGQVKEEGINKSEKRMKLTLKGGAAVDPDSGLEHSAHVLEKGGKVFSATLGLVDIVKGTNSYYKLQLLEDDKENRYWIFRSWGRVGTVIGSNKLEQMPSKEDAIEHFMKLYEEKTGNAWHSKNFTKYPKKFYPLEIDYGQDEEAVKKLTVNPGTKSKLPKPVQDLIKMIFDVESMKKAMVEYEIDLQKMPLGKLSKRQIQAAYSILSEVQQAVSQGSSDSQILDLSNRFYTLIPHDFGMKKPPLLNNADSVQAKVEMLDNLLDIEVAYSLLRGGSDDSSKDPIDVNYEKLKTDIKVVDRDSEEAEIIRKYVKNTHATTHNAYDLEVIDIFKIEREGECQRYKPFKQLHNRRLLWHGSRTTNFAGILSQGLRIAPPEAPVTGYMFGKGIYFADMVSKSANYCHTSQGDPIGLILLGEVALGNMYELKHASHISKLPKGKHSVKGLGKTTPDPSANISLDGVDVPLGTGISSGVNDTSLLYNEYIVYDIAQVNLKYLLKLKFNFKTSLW

The target in this assay is T1, macrophage migration inhibitory factor (MIF), endogenous (human (endogenous in MDA-MB-231 and HeLa)) (UniProt P14174).
T1 sequence: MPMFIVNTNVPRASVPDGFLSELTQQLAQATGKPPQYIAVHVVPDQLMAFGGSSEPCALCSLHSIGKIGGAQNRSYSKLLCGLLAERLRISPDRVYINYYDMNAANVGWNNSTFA
The experiment in a line: affinity purification with mass spectrometry; immunoprecipitation of endogenous MIF from HeLa cells, DMSO or 4 h after MNNG (50 uM, 15 min); MIF KO cells as negative control; hits found under both conditions.
Regarding “Flap endonuclease 1 (FEN1), endogenous (from UniProt P39748 1-380)”, the binding result is on record as “binds”.
Under “POLD1, endogenous (from UniProt P28340 1-1107)” stands “binds”; under “RPA1, endogenous (from UniProt P27694 1-616)”, “binds”; under “XRCC5, endogenous (from UniProt P13010 1-732)”, “binds”.
With “XRCC6, endogenous (from UniProt P12956 1-609)”, the binding result is given as “binds”.
“poly(ADP-ribose) polymerase 1 (PARP1), endogenous (from UniProt P09874 1-1014)”: the binding result was “binds”.

The values are drawn from paper PMC8134555.
